Test results: PMC7324386
Results are given in words; binding and its absence hold for the method and conditions named. In cells and extracts the contact can be indirect. Here binding means that the protein was enriched with, or labelled near, the bait; the list need not be complete. Tags and fused reporters may be left off the sequences shown. One block for each molecule: values may come before it.

Key:
Assay in all cases: proximity labelling; BioID2-tagged bait in 10-day-old transgenic Arabidopsis seedlings, 50 µM biotin for 16 h at room temperature, streptavidin-coated beads, label-free quantitative MS, ratiometric analysis against controls; the SUN1 bait also with MG132 treatment
[1] = target: T1, HA-BioID2-SUN1 (Arabidopsis thaliana) (UniProt Q9FF75)
T1 sequence: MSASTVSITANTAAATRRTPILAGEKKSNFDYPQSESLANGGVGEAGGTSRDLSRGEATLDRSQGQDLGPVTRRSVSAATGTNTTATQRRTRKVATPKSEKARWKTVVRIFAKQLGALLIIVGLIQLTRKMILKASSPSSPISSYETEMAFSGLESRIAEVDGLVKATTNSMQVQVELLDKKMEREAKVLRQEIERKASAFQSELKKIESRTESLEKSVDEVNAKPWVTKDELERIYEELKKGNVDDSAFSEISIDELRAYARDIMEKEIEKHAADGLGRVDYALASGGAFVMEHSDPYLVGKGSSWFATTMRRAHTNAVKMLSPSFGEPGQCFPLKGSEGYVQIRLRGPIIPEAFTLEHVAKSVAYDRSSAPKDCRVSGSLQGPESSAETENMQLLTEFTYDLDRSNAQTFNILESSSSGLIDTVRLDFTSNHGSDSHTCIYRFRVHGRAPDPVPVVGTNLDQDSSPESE

[2] = target: T2, PUX5-BioID2-HA (Arabidopsis thaliana) (UniProt Q7Y175)
T2 sequence: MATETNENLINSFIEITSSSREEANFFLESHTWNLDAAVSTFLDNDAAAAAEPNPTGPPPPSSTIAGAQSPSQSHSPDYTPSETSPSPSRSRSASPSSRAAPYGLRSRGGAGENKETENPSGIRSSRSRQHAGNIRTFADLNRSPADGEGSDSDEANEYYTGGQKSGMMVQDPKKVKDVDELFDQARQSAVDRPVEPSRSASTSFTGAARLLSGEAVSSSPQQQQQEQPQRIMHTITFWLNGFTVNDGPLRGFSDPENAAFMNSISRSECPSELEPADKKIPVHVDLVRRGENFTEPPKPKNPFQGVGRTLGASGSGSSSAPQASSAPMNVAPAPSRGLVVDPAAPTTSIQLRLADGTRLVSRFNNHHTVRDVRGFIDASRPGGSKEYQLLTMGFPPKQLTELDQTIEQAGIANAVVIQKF

[3] = target: T3, HA-BioID2-WIT1 (Arabidopsis thaliana) (UniProt Q8L7E5)
T3 sequence: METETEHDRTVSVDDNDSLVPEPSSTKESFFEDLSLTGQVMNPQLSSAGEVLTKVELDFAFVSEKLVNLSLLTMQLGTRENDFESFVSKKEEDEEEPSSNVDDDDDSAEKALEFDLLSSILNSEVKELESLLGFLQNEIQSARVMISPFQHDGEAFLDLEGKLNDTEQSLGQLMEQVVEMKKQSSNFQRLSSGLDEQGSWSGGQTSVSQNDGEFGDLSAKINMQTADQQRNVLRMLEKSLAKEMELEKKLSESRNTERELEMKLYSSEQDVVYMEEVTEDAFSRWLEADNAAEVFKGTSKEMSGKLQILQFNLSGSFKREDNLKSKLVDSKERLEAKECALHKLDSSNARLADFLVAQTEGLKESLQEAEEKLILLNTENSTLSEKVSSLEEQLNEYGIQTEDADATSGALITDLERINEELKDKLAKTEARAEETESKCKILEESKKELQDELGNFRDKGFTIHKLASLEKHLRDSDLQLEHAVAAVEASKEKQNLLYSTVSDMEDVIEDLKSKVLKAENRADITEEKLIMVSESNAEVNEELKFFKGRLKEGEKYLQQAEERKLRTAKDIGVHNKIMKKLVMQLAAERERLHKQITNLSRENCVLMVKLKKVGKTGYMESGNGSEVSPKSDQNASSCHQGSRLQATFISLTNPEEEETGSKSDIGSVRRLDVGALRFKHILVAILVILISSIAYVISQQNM

Molecule: CDC48B
- binding [1]: binds
- binding [2]: binds

Molecule: CDC48C
- binding [1]: binds

B1: KAKU4 (protein, UniProt Q949W6 1-485)
chain: MDSVSGYAAGAGQPRVGGKIVRPRRTAVVRTPCERPVQRSRDPPQQNPSWISRLVYKPASVIASGAGKFISSVVFSDSSSSSEEDEDSSSDIDGDEDVEKNNPDFTEEDLLSAQQPSIQRLSSKRVIEQLLLQETFAREEGDRLIDIIKARVVDHPSVPSAIETSHDDYGLTSDVNVGEMSNTAVMEARKWLEEKKSGSSSKYKATEDGAGSPVDVAKSYMRARLPWGSPAANNLDFRSPSSARVQGTPLPYSAGNFSSSKLKRKSGSNQSWNIQDEIRKVRAKATEEMLKSPSSVASLEPKYSPYVLATDMLKGNASSLNADGAVRNEQSRALPNSAIPTSEHNQTTEANQAVKETGVLHTRSRGVGLEETFISTQGVKPSEDTNTAPQSGTAVDDFNDQDGDFIQPTSTIGNTTNAVLALGATLDPTGNSCIPKDVFETSKEADEIGASRHTSNGFPSSSPSGYGRSTKTHTTRRNQGFSAYS
- binding [1]: binds

B2: NPL4A (protein, UniProt O82264 1-413)
chain: MMMLRIRSRDGLERVTAEGAHITVSQLKTLIADQLQIPLHKQTLSTNRDLLLAKTPADLLAFTDLTDPNLPLSSLNLGHGSMLYLAYDGERSIPGAPPVTPAGSFGRKMTVDDLIARQMRVTRQETSHCDSVSFDRDAANAFQHYVNESLAFAVKRGGFMYGTVTEEGQVEVDFIYEPPQQGTEANLILMRDADEEKRVDAIAMGLGMRRVGFIFNQTVVQDKTEYTLSNAEVLQAAELHAESELKEWVTAVVKLEVNEDGGADVHFEAFQMSDMCIRLFKEEWFETEIMPDDDPKLSKMKKEVVVGVKDLKEVDNDFFLVLVRILDHQGPLSSTFPIENRSSRATMRALKTHLDRAKSLPLVKKMSDFHLLLFVAQFLDVSSDVPALAECVRLQSPVPEGYALLIESMANTC
- binding [1]: binds
- binding [2]: binds

B3: RanGAP1 (protein, UniProt Q9LE82 1-535)
chain: MDHSAKTTQNRVLSVKMWPPSKSTRLMLVERMTKNITTPSIFSRKYGLLSVEEAEQDAKRIEDLAFATANKHFQNEPDGDGTSAVHVYAKESSKLMLDVIKRGPQEESEVEVSKDGDVFFDISGGSRAFIEEEEARDLLRPLADPRNSYTKIRFSNRSFGSEAAKFAASVLSSIKDQLTEVDLSDFVAGRPEAEALEVMNMFSSALEGSKLRYLNLSDNALGEKGIRAFASLINSQHDLEELYLMNDGISEDAARAVRELLPSTDKIRVLQFHNNMTGDEGATAIAEIVRECPSLEDFRCSSTRIGSEGGVALAEALEHCSHLKKLDLRDNMFGVEGGIALAKTLSVLTHLTEIYMSYLNLEDEGTEALSEALLKSAPSLEVLELAGNDITVKSTGNLAACIASKQSLAKLNLSENELKDEGTILIAKAVEGHDQLVEVDLSTNMIRRAGARALAQTVVKKNTFKLLNINGNFISEEGIDEVNDMFKDCLDKLVPLDDNDPEGEDFEDEDEEEEGEDGNELESKLGSLKIKQGEE
- binding [3]: binds

B6: CRWN2 (protein, UniProt Q9SAF6 1-1128)
chain: MTPRSETHKIGGVTNPRNADRKGKAVAFSDDLVIPTLPPPPIGTLTGQGVSRGHTDDMDMGDWRRFREVGLLNEASMEKKDQEALLEKISTLEKELYGYQHNMGLLLMENKELVSKHEQLNQAFQEAQEILKREQSSHLYALTTVEQREENLRKALGLEKQCVQELEKALREIQEENSKIRLSSEAKLVEANALVASVNGRSSDVENKIYSAESKLAEATRKSSELKLRLKEVETRESVLQQERLSFTKERESYEGTFQKQREYLNEWEKKLQGKEESITEQKRNLNQREEKVNEIEKKLKLKEKELEEWNRKVDLSMSKSKETEEDITKRLEELTTKEKEAHTLQITLLAKENELRAFEEKLIAREGTEIQKLIDDQKEVLGSKMLEFELECEEIRKSLDKELQRKIEELERQKVEIDHSEEKLEKRNQAMNKKFDRVNEKEMDLEAKLKTIKEREKIIQAEEKRLSLEKQQLLSDKESLEDLQQEIEKIRAEMTKKEEMIEEECKSLEIKKEEREEYLRLQSELKSQIEKSRVHEEFLSKEVENLKQEKERFEKEWEILDEKQAVYNKERIRISEEKEKFERFQLLEGERLKKEESALRVQIMQELDDIRLQRESFEANMEHERSALQEKVKLEQSKVIDDLEMMRRNLEIELQERKEQDEKDLLDRMAQFEDKRMAELSDINHQKQALNREMEEMMSKRSALQKESEEIAKHKDKLKEQQVEMHNDISELSTLSINLKKRREVFGRERSRFLAFVQKLKDCGSCGQLVNDFVLSDLQLPSNDEVAILPPIGVLNDLPGSSNASDSCNIKKSLDGDASGSGGSRRPSMSILQKCTSIIFSPSKRVEHGIDTGKPEQRLSSSVAVGMETKGEKPLPVDLRLRPSSSSIPEEDEEYTDSRVQETSEGSQLSEFQSSRRGRGRPRKAKPALNPTSSVKHASLEESSKDELSGHVSVTSKKTTGGGGRKRQHIDDTATGGKRRRQQTVAVLPQTPGQRHYNLRRKKTVDQVPADVEDNAAAGEDDADIAASAPSKDTVEETVVETLRARRIETNADVVSAENNGDVPVANVEPTVNEDTNEDGDEEEDEAQDDDNEENQDDDDDDDGDDDGSPRPGEGSIRKKLWTFLTT
- binding [1]: binds

Further lines, results first:

- binding [3]: binds
B4: RanGAP2 (protein, UniProt Q9M651 1-545)
chain: MADILDSRPHAFSIKLWPPSLPTRKALIERITNNFSSKTIFTEKYGSLTKDQATENAKRIEDIAFSTANQQFEREPDGDGGSAVQLYAKECSKLILEVLKKGPVAKVAARELISEDSVSPRETFFDISKGKRAFIEAEEAEELLKPLKEPGNAYTKICFSNRSFGLGAARVAEPILASLKDQLKEVDLSDFVAGRPELEALEVMNIFSDALQGSILSSLNLSDNALGEKGVRAFGALLKSLSSLEELYLMNDGISKEAAQAVSELIPSTENLRVLHFHNNMTGDEGALAIAEVVKRSPLLENFRCSSTRVGSKGGIALSEALEHCTHMEKLDLRDNMFGTEAGVSLSKTLSSFKHMTELYLSYLNLEDEGAIAIVNALKESASPIEVLEMAGNDITVEAASAIAACVAAKQDLNKLNLSENELKDEGCVQIANCIEEGHSKLQYIDMSTNYIRRAGARALAHVVVKKEAFKLLNIDGNIISEEGIEELKEIFKKSPELLGALDENDPDGEEDDDDEEDEEDEENEGNGNGELESKLKNLEVNQED

- binding [3]: binds
B5: WIP3 (protein, UniProt Q94AV5 1-459)
chain: MNESVPDSVEDNGNSVPANGLLVLPDNDHEEGGVGSPQRSNSVESPGGSVHSTRKGFGLKKWRRIKRDGPVRDEAAPVDDGSKLLKRGLAGLVNPPSKHVEFSSVEARQSSEGSVGSVNMVHHPGVANGFSPDIGCMFAVGQAFEKSEEHSGNTIGGKNVVGGKVVSGSQEKLWSDTIKRASEERGDIEKEKPCSSLDSDLRSSDFVFSTGSVSVGNHGEKDERLTMNYIGGFSNEGQVKEEVQTYSRSENGNKEDDGESKKNNNHWADKDALADSIRSFAVLQEVLWKEVQSFQELGKESVLLHSNTDELSSDQPSHQNCKEDNSTSSGSKALILKEKVKLLEHKLEEARAALEAKEARIQELENSKIESELECIFQRKIETEIEHLMLTRSLSSLQVLQETKKLHSLKEDPVSNRGNILGKTCKLGFYILTQLILLVSILRFLVLQFSPASRLVIPT

- binding [3]: binds
B7: WIP1 (protein, UniProt Q8GXA4 1-489)
chain: MDLESESSALESVDDNVLIQQSASNVCDDGRSLDNGSCSDESVKLLSTSNSVELGKPMSFDSPGDGGGAYSPVLKGQGLRKWRRIRRDLVKDTSANMENSKALKRGLSGVAHSHGKQMQFQSPEVEQESQGSVGSVNMLKSSGDGFDILGSSGYDSRFVAGVGFSAGMDLEIDDDRSSKSSTVARAPKVIRYEKPMISSGQGGNIRVENSKKHRGESVDFEKENSYSSLESDSRKQSGRMMDYNGENGETSMRKDDAGGEGGESINTDNRYSDEMDPLTEAINGFLALQDALEKEVQQFQEIGNEPMPQHHEQVSEANSPHPEIVTLVNNVEQLENMLEETRSMLEVKESHIRDLESTTNQSKHSWGGTEIVVEDIFRQKIEAEIEYLIYSRSIDNLNSQMKLIDEQESLAEEQTHETLNKLGRVQTKAANFTNRAQDLQNDCIEITGTIKKRACKITSYVLIQLVLLSTVVLLLLSQLLPEPDTVVPT
